Results are given in words; binding and its absence hold for the method and conditions named. In cells and extracts the contact can be indirect. Some binding calls cover weakened binding; strength is not graded here.

Protein sequences, listed by entry. Tags and fused reporters are not part of them.
UniProt O15392: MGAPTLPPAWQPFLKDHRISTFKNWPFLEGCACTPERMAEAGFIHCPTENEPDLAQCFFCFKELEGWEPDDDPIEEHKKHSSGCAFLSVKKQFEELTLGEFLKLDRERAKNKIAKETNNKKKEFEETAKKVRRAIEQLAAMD
UniProt P98170: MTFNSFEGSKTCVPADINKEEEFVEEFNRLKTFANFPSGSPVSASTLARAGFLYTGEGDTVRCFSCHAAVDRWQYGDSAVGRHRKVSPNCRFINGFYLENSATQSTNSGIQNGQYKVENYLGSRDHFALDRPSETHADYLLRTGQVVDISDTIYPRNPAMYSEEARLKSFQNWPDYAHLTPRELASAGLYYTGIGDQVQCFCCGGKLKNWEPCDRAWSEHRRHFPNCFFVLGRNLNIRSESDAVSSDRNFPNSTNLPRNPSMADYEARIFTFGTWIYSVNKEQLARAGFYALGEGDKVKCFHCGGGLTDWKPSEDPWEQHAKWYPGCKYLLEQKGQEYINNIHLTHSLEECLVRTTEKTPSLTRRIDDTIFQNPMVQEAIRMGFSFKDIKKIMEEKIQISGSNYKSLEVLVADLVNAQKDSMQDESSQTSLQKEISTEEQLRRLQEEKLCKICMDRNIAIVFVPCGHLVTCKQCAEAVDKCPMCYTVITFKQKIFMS

Common to all, as to experiment: co-IP; endogenous proteins from HCT116 and RKO cells lysed in 1% Triton X-100, 50 mM Tris-Cl pH 7.4, 150 mM NaCl, 10 mM EDTA; precipitated with anti-survivin, anti-XIAP or anti-TAB1 antibody, Western blot
Test [1] has as its target survivin (human (endogenous in HCT116 and RKO)) (UniProt O15392).
The target in test [2] is XIAP (human (endogenous in HCT116 and RKO)) (UniProt P98170).
Test [3] deals with T1, TAB1 (human (endogenous in HCT116 and RKO)) (UniProt Q15750).
T1 sequence: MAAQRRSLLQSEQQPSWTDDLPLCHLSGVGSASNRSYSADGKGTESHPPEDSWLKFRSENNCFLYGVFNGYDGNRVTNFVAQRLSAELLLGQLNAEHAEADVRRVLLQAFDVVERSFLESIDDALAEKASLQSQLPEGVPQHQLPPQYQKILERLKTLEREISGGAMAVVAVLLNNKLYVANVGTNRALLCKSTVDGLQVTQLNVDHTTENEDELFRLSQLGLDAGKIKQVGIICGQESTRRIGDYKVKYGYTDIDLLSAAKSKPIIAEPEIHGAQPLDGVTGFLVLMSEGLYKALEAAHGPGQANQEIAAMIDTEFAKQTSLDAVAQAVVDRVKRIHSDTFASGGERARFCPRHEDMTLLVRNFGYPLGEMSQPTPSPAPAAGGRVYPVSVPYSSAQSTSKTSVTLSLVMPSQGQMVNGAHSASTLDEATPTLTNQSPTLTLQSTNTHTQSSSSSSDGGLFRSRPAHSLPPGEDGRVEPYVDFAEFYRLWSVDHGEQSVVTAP

Consider XIAP (from UniProt P98170 1-497), for which, in test [1], the binding entry is “binds”.

As for survivin (from UniProt O15392 1-142), the binding result in test [2] is recorded as “binds”.

B1: TAK1 (protein, UniProt O43318 1-606)
chain: MSTASAASSSSSSSAGEMIEAPSQVLNFEEIDYKEIEVEEVVGRGAFGVVCKAKWRAKDVAIKQIESESERKAFIVELRQLSRVNHPNIVKLYGACLNPVCLVMEYAEGGSLYNVLHGAEPLPYYTAAHAMSWCLQCSQGVAYLHSMQPKALIHRDLKPPNLLLVAGGTVLKICDFGTACDIQTHMTNNKGSAAWMAPEVFEGSNYSEKCDVFSWGIILWEVITRRKPFDEIGGPAFRIMWAVHNGTRPPLIKNLPKPIESLMTRCWSKDPSQRPSMEEIVKIMTHLMRYFPGADEPLQYPCQYSDEGQSNSATSTGSFMDIASTNTSNKSDTNMEQVPATNDTIKRLESKLLKNQAKQQSESGRLSLGASRGSSVESLPPTSEGKRMSADMSEIEARIAATTAYSKPKRGHRKTASFGNILDVPEIVISGNGQPRRRSIQDLTVTGTEPGQVSSRSSSPSVRMITTSGPTSEKPTRSHPWTPDDSTDTNGSDNSIPMAYLTLDHQLQPLAPCPNSKESMAVFEQHCKMAQEYMKVQTEIALLLQRKQELVAELDQDEKDQQNTSRLVQEHKKLLDENKSLSTYYQQCKKQLEVIRSQQQKRQGTS
For B1, the binding entry in test [3] is recorded as “binds”.

(Values after paper PMC7203900.)
